Test results reported in the supplement of paper PMC12542422.
Where a name gives a salt, the structure may show the parent alone. ± gives the standard deviation of the averaged measurements. The list shows a part of the results. These are raw signals, not scaled to a control.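 Across three biological replicates, HeLa cells were imaged for ribosome assembly using ENP1 staining (export block present or absent) or inducible tagged ribosomal protein reporters. Machine learning classified each cell's signal localization relative to DMSO controls. Hits exceeded the DMSO false-positive mean by five standard deviations and were then visually confirmed.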

Legend:
[1] = system: HeLa K (ENP1 immunofluorescence, +LMB); test: fraction of cells with nucleolar or nucleolar/nucleoplasmic ENP1 signal (MainHitrate); higher = more cells with nucleolar/nuclear readout signal (for ENP1 -LMB: less RNAPI inhibition; for +LMB ENP1 and RP reporters: stronger nuclear/nucleolar retention, i.e. ribosome biogenesis defect); settings: concentration: 1 µM; treatment time: 6 h; ENP1 +LMB; leptomycin B: 20 nM, last 1.5 h
[2] = system: HeLa K (ENP1 immunofluorescence, no LMB); test: as above; settings: concentration: 1 µM; treatment time: 6 h; ENP1 -LMB; leptomycin B: none
[3] = system: HeLa RPS2-YFP reporter; test: fraction of reporter-positive cells with nuclear (nucleolar or nucleolar/nucleoplasmic) RPS2-YFP (MainHitrate); higher = more cells with nucleolar/nuclear readout signal (for ENP1 -LMB: less RNAPI inhibition; for +LMB ENP1 and RP reporters: stronger nuclear/nucleolar retention, i.e. ribosome biogenesis defect); settings: concentration: 1 µM; treatment time: 6 h
[4] = system: HeLa RPL29-GFP reporter; test: fraction of reporter-positive cells with nuclear (nucleolar or nucleolar/nucleoplasmic) RPL29-GFP (MainHitrate); higher = more cells with nucleolar/nuclear readout signal (for ENP1 -LMB: less RNAPI inhibition; for +LMB ENP1 and RP reporters: stronger nuclear/nucleolar retention, i.e. ribosome biogenesis defect); settings: concentration: 1 µM; treatment time: 6 h

SMILES	fraction [1]	fraction [2]	fraction of reporter-positive cells with nuclear [3]	fraction of reporter-positive cells with nuclear [4]
Nc1nc(Cl)nc2c1ncn2[C@@H]1O[C@H](CO)[C@@H](O)[C@@H]1F [Clofarabine]	0.107 ± 0.091	0.9963 ± 0.0064	0.101 ± 0.054	0.138 ± 0.055
Oc1c(Br)cc(Br)c2cccnc12 [Broxyquinoline]	0.0443 ± 0.056	0.985 ± 0.026	0.116 ± 0.087	0.203 ± 0.057
N[C@@H](Cc1ccc(O)c(O)c1)C(=O)O [Levodopa (Sinemet)]	0.299 ± 0.33	0.9989 ± 0.002	0.13 ± 0.07	0.208 ± 0.064
CC[C@H]1OC(=O)[C@H](C)[C@@H](O[C@H]2C[C@@](C)(OC)[C@@H](O)[C@H](C)O2)[C@H](C)[C@@H](O[C@@H]2O[C@H](C)C[C@H](N(C)C)[C@H]2O)[C@](C)(O)C[C@@H](C)CN(C)[C@H](C)[C@@H](O)[C@]1(C)O [Azithromycin (Zithromax)]	0.0795 ± 0.11	0.994 ± 0.01	0.109 ± 0.068	0.249 ± 0.056
CS(=O)(=O)c1ccc([C@@H](O)[C@@H](CO)NC(=O)C(Cl)Cl)cc1 [Thiamphenicol (Thiophenicol)]	0.0579 ± 0.06	0.991 ± 0.016	0.0924 ± 0.1	0.2 ± 0.042
CCCSc1nc(N[C@@H]2C[C@H]2c2ccc(F)c(F)c2)c2nnn([C@@H]3C[C@H](OCCO)[C@@H](O)[C@H]3O)c2n1 [Ticagrelor]	0.0911 ± 0.14	0.986 ± 0.025	0.13 ± 0.12	0.218 ± 0.086
NCC[C@H](O)C(=O)N[C@@H]1C[C@H](N)[C@@H](O[C@H]2O[C@H](CN)[C@@H](O)[C@H](O)[C@H]2O)[C@H](O)[C@H]1O[C@H]1O[C@H](CO)[C@@H](O)[C@H](N)[C@H]1O [Amikacin hydrate]	0.102 ± 0.15	0.985 ± 0.026	0.101 ± 0.1	0.219 ± 0.085
Nc1ccn([C@@H]2O[C@H](CO)[C@@H](O)C2(F)F)c(=O)n1 [Gemcitabine (Gemzar)]	0.0946 ± 0.074	0.9974 ± 0.0046	0.0667 ± 0.041	0.138 ± 0.042
CCCNCC(O)COc1ccccc1C(=O)CCc1ccccc1 (stereo unspecified) [Propafenone (Rytmonorm)]	0.125 ± 0.17	0.9946 ± 0.0093	0.112 ± 0.068	0.225 ± 0.082
C[C@@H](NCCCc1cccc(C(F)(F)F)c1)c1cccc2ccccc12 [AMG-073 HCl (Cinacalcet hydrochloride)]	0.116 ± 0.12	0.9981 ± 0.0032	0.107 ± 0.075	0.201 ± 0.054
CS(=O)(=O)OCCCCOS(C)(=O)=O [Busulfan (Myleran, Busulfex)]	0.0686 ± 0.08	0.997 ± 0.0052	0.108 ± 0.077	0.223 ± 0.063
COc1ccc([C@@H]2Sc3ccccc3N(CCN(C)C)C(=O)[C@@H]2OC(C)=O)cc1 [Diltiazem HCl (Tiazac)]	0.131 ± 0.2	0.993 ± 0.013	0.116 ± 0.055	0.225 ± 0.089
Cc1nnc(C(C)C)n1C1C[C@H]2CC[C@@H](C1)N2CC[C@H](NC(=O)C1CCC(F)(F)CC1)c1ccccc1 (stereo in doubt) [Maraviroc]	0.0813 ± 0.088	0.9946 ± 0.0094	0.129 ± 0.038	0.222 ± 0.11
C[C@]12CC[C@@H]3c4ccc(O)cc4CC[C@H]3[C@@H]1CC[C@@H]2O [Estradiol]	0.0451 ± 0.022	0.9986 ± 0.0024	0.146 ± 0.11	0.214 ± 0.072
CC(C(=O)O)c1cccc(Oc2ccccc2)c1 (stereo unspecified) [Fenoprofen calcium]	0.0554 ± 0.07	0.9943 ± 0.0099	0.0933 ± 0.077	0.22 ± 0.083
Nc1[nH]cnc2ncnc1-2 [Adenine hydrochloride]	0.1 ± 0.14	0.994 ± 0.011	0.0963 ± 0.069	0.237 ± 0.087
CO[C@H]1O[C@@H]2O[C@@]3(C)CC[C@H]4[C@H](C)CC[C@@H]([C@H]1C)[C@@]24OO3 [Artemether (SM-224)]	0.164 ± 0.24	0.985 ± 0.026	0.12 ± 0.082	0.208 ± 0.078
CCCCC(=O)O[C@H]1CC[C@H]2[C@@H]3CCc4cc(O)ccc4[C@H]3CC[C@]12C [Estradiol valerate]	0.117 ± 0.17	0.986 ± 0.024	0.128 ± 0.084	0.183 ± 0.064
CCCCCN(C)CCC(O)(P(=O)(O)O)P(=O)(O)O [Ibandronate sodium]	0.0636 ± 0.086	0.982 ± 0.031	0.127 ± 0.11	0.208 ± 0.032
CC(C)CC(N)=O [Isovaleramide]	0.0589 ± 0.074	0.989 ± 0.02	0.127 ± 0.1	0.208 ± 0.087
CC1(C)S[C@@H]2[C@H](NC(=O)[C@H](N)c3ccccc3)C(=O)N2[C@H]1C(=O)O [Ampicillin sodium]	0.125 ± 0.19	0.968 ± 0.055	0.124 ± 0.081	0.207 ± 0.093
COc1cc2nccc(Oc3ccc(NC(=O)C4(C(=O)Nc5ccc(F)cc5)CC4)cc3)c2cc1OC [XL-184 (Cabozantinib)]	0.0473 ± 0.024	0.9978 ± 0.0039	0.0933 ± 0.086	0.239 ± 0.083
Nc1ccn([C@@H]2O[C@H](CO)[C@@H](O)C2(F)F)c(=O)n1 [Gemcitabine HCl (Gemzar)]	0.0726 ± 0.065	0.9971 ± 0.0051	0.066 ± 0.034	0.182 ± 0.091
NC[C@H]1CC[C@H](C(=O)O)CC1 [Tranexamic acid (Transamin)]	0.083 ± 0.1	0.991 ± 0.016	0.111 ± 0.055	0.224 ± 0.058

Exported as labelled records: entries from further up
CC[C@H]1OC(=O)[C@H](C)[C@@H](O[C@H]2C[C@@](C)(OC)[C@@H](O)[C@H](C)O2)[C@H](C)[C@@H](O[C@@H]2O[C@H](C)C[C@H](N(C)C)[C@H]2O)[C@](C)(O)C[C@@H](C)CN(C)[C@H](C)[C@@H](O)[C@]1(C)O [Azithromycin (Zithromax)]
  fraction [1]: 0.0795 ± 0.11
  fraction [2]: 0.994 ± 0.01
  fraction of reporter-positive cells with nuclear [3]: 0.109 ± 0.068
  fraction of reporter-positive cells with nuclear [4]: 0.249 ± 0.056
C[C@@H](NCCCc1cccc(C(F)(F)F)c1)c1cccc2ccccc12 [AMG-073 HCl (Cinacalcet hydrochloride)]
  fraction [1]: 0.116 ± 0.12
  fraction [2]: 0.9981 ± 0.0032
  fraction of reporter-positive cells with nuclear [3]: 0.107 ± 0.075
  fraction of reporter-positive cells with nuclear [4]: 0.201 ± 0.054
